# Results: the supplement of paper PMC4604168 (melanoma cell lines)
# The other results are listed elsewhere or left out. Single values are uncertain, as repeats are few or missing.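 Cells were imaged in 1,536-well plates, and nuclei stained with an antibody against cleaved PARP were counted against all DNA-stained nuclei to give the apoptosis fraction. Screening doses were chosen to leave most cells alive, and resting and induced cleaved-PARP levels differ strongly between cell lines.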
# System: IPC-298
# Test: cleaved PARP positive nuclei fraction relative to DMSO control; melanoma cells; higher = more apoptosis
# Conditions: library dose: low library concentration; 72 h
row,Structure (SMILES),cleaved PARP positive nuclei fraction [%]
1,"O=C(CCCCCCC(=O)Nc1ccccc1)NO [vorinostat] + COc1ccc2c(c1)CCC1C2CCC2(C)C(NCCCCCCN3C(=O)C=CC3=O)CCC12 [U73122] (first compound 0.08 µM, partner dose 0.4 µM)",162
2,"Cn1nnc2c(C(N)=O)ncn2c1=O [temozolomide] + COc1ccc(COc2ccc(Cc3cnc(N)nc3N)cc2OC)cc1 [GW2580] (first compound 2 µM, partner dose 1 µM)",87.2
3,"OCCn1cc(-c2cnc3nnn(Cc4ccc5ncccc5c4)c3n2)cn1 + COc1ccc(-c2ccc3c(N4CCOCC4)nc(N4C[C@@H](C)O[C@@H](C)C4)nc3n2)cc1CO [KU0063794] (first compound 1 µM, partner dose 0.02 µM)",66.7
4,"Cc1ccc(NC(=O)c2cccc(N(C)C)c2)cc1NC(=O)c1ccc(O)cc1 + Cn1cc(/C=C2\C(=O)Nc3cccnc32)c2ccccc21 [GW441756] (first compound 2 µM, partner dose 0.4 µM)",155
5,"Cc1ccc(NC(=O)c2cccc(N(C)C)c2)cc1NC(=O)c1ccc(O)cc1 + CCCCCCCCCCCC1=C(O)C(=O)C=C(O)C1=O [Embelin] (first compound 2 µM, partner dose 1.2 µM)",76.9
6,"Cn1cncc1[C@@](N)(c1ccc(Cl)cc1)c1ccc2c(c1)c(-c1cccc(Cl)c1)cc(=O)n2C [tipifarnib] + Cc1cc([N+](=O)[O-])ccc1NS(=O)(=O)c1cc(Cl)ccc1Cl [FH535] (first compound 0.01 µM, partner dose 1 µM)",95.4
7,"Cn1c(Nc2ccc(C(F)(F)F)cc2)nc2cc(Oc3ccnc(-c4ncc(C(F)(F)F)[nH]4)c3)ccc21 + COc1ccc2c(c1)CCC1C2CCC2(C)C(NCCCCCCN3C(=O)C=CC3=O)CCC12 [U73122] (first compound 0.08 µM, partner dose 0.4 µM)",145
8,"Cn1cncc1[C@@](N)(c1ccc(Cl)cc1)c1ccc2c(c1)c(-c1cccc(Cl)c1)cc(=O)n2C [tipifarnib] + Oc1cc(-c2nc(-c3ccccc3)[nH]c2-c2ccncc2)ccc1Cl [L779450] (first compound 0.01 µM, partner dose 0.2 µM)",146
9,"OCCn1cc(-c2cnc3nnn(Cc4ccc5ncccc5c4)c3n2)cn1 + O=C(O)C(=O)Nc1sc2c(c1C(=O)O)CCNC2 [TCS401] (first compound 1 µM, partner dose 1.66667 µM)",28.4
10,"C=CCn1c(=O)c2cnc(Nc3ccc(N4CCN(C)CC4)cc3)nc2n1-c1cccc(C(C)(C)O)n1 + Oc1nc(-c2ccc(C(F)(F)F)cc2)nc2c1CSCC2 [XAV939] (first compound 0.02 µM, partner dose 2 µM)",170
11,"Nc1cccc2c1CN(C1CCC(=O)NC1=O)C2=O (centres undefined) [lenalidomide] + CCCCCCCCCCCC1=C(O)C(=O)C=C(O)C1=O [Embelin] (first compound 1 µM, partner dose 1.2 µM)",105
12,"C[C@@H]1CCN(C(=O)CC#N)C[C@@H]1N(C)c1ncnc2[nH]ccc12 + Oc1cc(-c2nc(-c3ccccc3)[nH]c2-c2ccncc2)ccc1Cl [L779450] (first compound 1 µM, partner dose 0.2 µM)",175
13,"Cc1cc(N2CCOCC2)cc2[nH]c(-c3c(NC[C@@H](O)c4cccc(Cl)c4)cc[nH]c3=O)nc12 + Cc1cc([N+](=O)[O-])ccc1NS(=O)(=O)c1cc(Cl)ccc1Cl [FH535] (first compound 0.2 µM, partner dose 1 µM)",39.1
14,"C=CCn1c(=O)c2cnc(Nc3ccc(N4CCN(C)CC4)cc3)nc2n1-c1cccc(C(C)(C)O)n1 + O=C1NC(=O)/C(=C/c2ccc(-c3ccc(F)cc3O)o2)S1 [AS252424] (first compound 0.02 µM, partner dose 1 µM)",85.4
15,"Cc1ccc(NC(=O)c2cccc(N(C)C)c2)cc1NC(=O)c1ccc(O)cc1 + N#Cc1c(O)c2c(-c3ccc(-c4ccccc4O)cc3)csc2[nH]c1=O [A769662] (first compound 2 µM, partner dose 2 µM)",106
16,"Cn1cncc1[C@@](N)(c1ccc(Cl)cc1)c1ccc2c(c1)c(-c1cccc(Cl)c1)cc(=O)n2C [tipifarnib] + CCN(CC)CCCCNc1ncc2cc(-c3cc(OC)cc(OC)c3)c(NC(=O)NC(C)(C)C)nc2n1 [PD173074] (first compound 0.01 µM, partner dose 0.1 µM)",54.4
17,"O=C(CCCCCCC(=O)Nc1ccccc1)NO [vorinostat] + CCCCCCCCCCCC1=C(O)C(=O)C=C(O)C1=O [Embelin] (first compound 0.08 µM, partner dose 1.2 µM)",56.5

row,Structure (SMILES),cleaved PARP positive nuclei fraction [%]
1,"Cn1nnc2c(C(N)=O)ncn2c1=O [temozolomide] + Cn1cc(/C=C2\C(=O)Nc3cccnc32)c2ccccc21 [GW441756] (first compound 2 µM, partner dose 0.4 µM)",91.9
2,"Nc1cccc2c1CN(C1CCC(=O)NC1=O)C2=O (centres undefined) [lenalidomide] + COc1cc2ncnc(Nc3ccc(Oc4ccccc4)cc3)c2cc1OC [SrcI1] (first compound 1 µM, partner dose 2 µM)",111
3,"COc1cc(Nc2ncc(F)c(Nc3ccc4c(n3)NC(=O)C(C)(C)O4)n2)cc(OC)c1OC [Tamatinib] + CCc1ccc(CCOc2ccc(CC3SC(=O)NC3=O)cc2)nc1 [pioglitazone] (first compound 0.4 µM, partner dose 2 µM)",77.1
4,"Cc1nc(Nc2ncc(C(=O)Nc3c(C)cccc3Cl)s2)cc(N2CCN(CCO)CC2)n1 [dasatanib] + COc1cc(N2CCC(N3CCN(C)CC3)CC2)ccc1Nc1ncc(Cl)c(Nc2ccccc2S(=O)(=O)C(C)C)n1 [NVP-TAE684] (first compound 0.004 µM, partner dose 0.08 µM)",42
5,"Cn1c(Nc2ccc(C(F)(F)F)cc2)nc2cc(Oc3ccnc(-c4ncc(C(F)(F)F)[nH]4)c3)ccc21 + Cc1cc([N+](=O)[O-])ccc1NS(=O)(=O)c1cc(Cl)ccc1Cl [FH535] (first compound 0.08 µM, partner dose 1 µM)",72.6
6,"O=C(CCCCCCC(=O)Nc1ccccc1)NO [vorinostat] + O=S(=O)(c1ccccc1)N(CC(F)(F)F)c1ccc(C(O)(C(F)(F)F)C(F)(F)F)cc1 [T0901317] (first compound 0.08 µM, partner dose 1.4 µM)",39.1
7,"CC(C)(C)c1cnc(CSc2cnc(NC(=O)C3CCNCC3)s2)o1 + CCc1ccc(CCOc2ccc(CC3SC(=O)NC3=O)cc2)nc1 [pioglitazone] (first compound 0.01 µM, partner dose 2 µM)",25.1
8,"COc1cc(Nc2ncc(F)c(Nc3ccc4c(n3)NC(=O)C(C)(C)O4)n2)cc(OC)c1OC [Tamatinib] + Cn1cc(/C=C2\C(=O)Nc3cccnc32)c2ccccc21 [GW441756] (first compound 0.4 µM, partner dose 0.4 µM)",52.4
9,"C#Cc1cccc(Nc2ncnc3cc(OCCOC)c(OCCOC)cc23)c1 [erlotinib] + N#Cc1c(O)c2c(-c3ccc(-c4ccccc4O)cc3)csc2[nH]c1=O [A769662] (first compound 0.8 µM, partner dose 2 µM)",82.1
10,"OCCn1cc(-c2cnc3nnn(Cc4ccc5ncccc5c4)c3n2)cn1 + COc1cc(N2CCC(N3CCN(C)CC3)CC2)ccc1Nc1ncc(Cl)c(Nc2ccccc2S(=O)(=O)C(C)C)n1 [NVP-TAE684] (first compound 1 µM, partner dose 0.08 µM)",36.2
11,"O=C(Nc1cccc(Cl)c1)Nc1ncc(CCNc2ncnc3ccsc23)s1 + COc1ccc(COc2ccc(Cc3cnc(N)nc3N)cc2OC)cc1 [GW2580] (first compound 0.0008 µM, partner dose 1 µM)",128
12,"Cc1nc(Nc2ncc(C(=O)Nc3c(C)cccc3Cl)s2)cc(N2CCN(CCO)CC2)n1 [dasatanib] + O=C1NC(=O)/C(=C/c2ccc(-c3ccc(F)cc3O)o2)S1 [AS252424] (first compound 0.004 µM, partner dose 1 µM)",43.6
13,"C[C@]1(c2nc3c(C(N)=O)cccc3[nH]2)CCCN1 [Veliparib] + Cc1cc([N+](=O)[O-])ccc1NS(=O)(=O)c1cc(Cl)ccc1Cl [FH535] (first compound 1.4 µM, partner dose 1 µM)",45
14,"C[C@@H]1CCN(C(=O)CC#N)C[C@@H]1N(C)c1ncnc2[nH]ccc12 + COc1cc2ncnc(Nc3ccc(Oc4ccccc4)cc3)c2cc1OC [SrcI1] (first compound 1 µM, partner dose 2 µM)",84
15,"CC1(C)NC(=O)N(c2ccc([N+](=O)[O-])c(C(F)(F)F)c2)C1=O [nilutamide] + c1cc(-c2cnn3cc(-c4ccc(OCCN5CCCCC5)cc4)cnc23)ccn1 [Dorsomorphin] (first compound 1 µM, partner dose 0.4 µM)",80.3
16,"C[C@@H]1CCN(C(=O)CC#N)C[C@@H]1N(C)c1ncnc2[nH]ccc12 + c1cc(-c2cnn3cc(-c4ccc(OCCN5CCCCC5)cc4)cnc23)ccn1 [Dorsomorphin] (first compound 1 µM, partner dose 0.4 µM)",64
17,"NC(=O)Nc1cc(-c2cccc(F)c2)sc1C(=O)N[C@H]1CCCNC1 + O=S(=O)(c1ccccc1)N(CC(F)(F)F)c1ccc(C(O)(C(F)(F)F)C(F)(F)F)cc1 [T0901317] (first compound 0.02 µM, partner dose 1.4 µM)",104

# Shown with tabs: part of the list above.
row	Structure (SMILES)	cleaved PARP positive nuclei fraction [%]
4	Cc1nc(Nc2ncc(C(=O)Nc3c(C)cccc3Cl)s2)cc(N2CCN(CCO)CC2)n1 [dasatanib] + COc1cc(N2CCC(N3CCN(C)CC3)CC2)ccc1Nc1ncc(Cl)c(Nc2ccccc2S(=O)(=O)C(C)C)n1 [NVP-TAE684] (first compound 0.004 µM, partner dose 0.08 µM)	42
5	Cn1c(Nc2ccc(C(F)(F)F)cc2)nc2cc(Oc3ccnc(-c4ncc(C(F)(F)F)[nH]4)c3)ccc21 + Cc1cc([N+](=O)[O-])ccc1NS(=O)(=O)c1cc(Cl)ccc1Cl [FH535] (first compound 0.08 µM, partner dose 1 µM)	72.6
